According to publication PMC9452699:
Substitutions are numbered along the chain they refer to. Results are given in words; binding and its absence hold for the method and conditions named. In cells and extracts the contact can be indirect. Some results given as binding are weak or reduced against the parent protein; the word gives no strength. Where a sequence is shown, tags or fusion partners need not be part of it.

How the values were obtained:
[1] = target: T1, flag-Batf3 Mut (H57Q, E58A, Q65D, E79K) (UniProt Q9D275); test: co-IP; lysate (IP lysis buffer) of transduced mouse CD4+ T cells after 48 hrs in iTreg conditions, incubated overnight with anti-flag antibody agarose beads, washed 3x with PBS; blot with anti-FLAG, anti-IRF4 and anti-JUNB
T1 sequence: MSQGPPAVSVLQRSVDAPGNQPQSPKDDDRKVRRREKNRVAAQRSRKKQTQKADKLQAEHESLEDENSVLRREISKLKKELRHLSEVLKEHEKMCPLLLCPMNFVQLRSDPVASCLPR

flag-Batf3 WT = target: T2, flag-Batf3 WT (UniProt Q9D275); test: as above
T2 sequence: T1 sequence with Q57H, A58E, D65Q, K79E

binding [1]: binds
binding (flag-Batf3 WT): binds
B1: JUNB (protein, UniProt P09450 1-344)
chain: MCTKMEQPFYHDDSYAAAGYGRSPGSLSLHDYKLLKPTLALNLADPYRGLKGPGARGPGPEGSGAGSYFSGQGSDTGASLKLASTELERLIVPNSNGVITTTPTPPGQYFYPRGGGSGGGTGGGVTEEQEGFADGFVKALDDLHKMNHVTPPNVSLGASGGPQAGPGGVYAGPEPPPVYTNLSSYSPASAPSGGSGTAVGTGSSYPTATISYLPHAPPFAGGHPAQLGLSRGASAFKEEPQTVPEARSRDATPPVSPINMEDQERIKVERKRLRNRLAATKCRKRKLERIARLEDKVKTLKAENAGLSSAAGLLREQVAQLKQKVMTHVSNGCQLLLGVKGHAF
